PMC12827560

Legend:
FOXA1 [1] = assay: competition with a labelled probe; details: 200-fold excess vs T1-Wt-IR680; EMSA: room temperature, 30 min, 6% native polyacrylamide gel; salt and pH not stated; protein in an extract
FOXA2 [2] = assay: competition with a labelled probe; details: 200-fold excess vs T1-Wt-IR680; EMSA: room temperature, 30 min, 6% native polyacrylamide gel; salt and pH not stated; protein in an extract
FOXA3 [3] = assay: competition with a labelled probe; details: 200-fold excess vs T1-Wt-IR680; EMSA: room temperature, 30 min, 6% native polyacrylamide gel; salt and pH not stated; protein in an extract
GATA3 [4] = assay: competition with a labelled probe; details: 200-fold excess vs T1-Wt-IR680; EMSA: room temperature, 30 min, 6% native polyacrylamide gel; salt and pH not stated; protein in an extract
FOXA1 [5] = assay: EMSA; details: EMSA: room temperature, 30 min, 6% native polyacrylamide gel; salt and pH not stated; protein in an extract; label: IR680 at 5' end
FOXA2 [6] = assay: EMSA; details: EMSA: room temperature, 30 min, 6% native polyacrylamide gel; salt and pH not stated; protein in an extract; label: IR680 at 5' end
FOXA3 [7] = assay: EMSA; details: EMSA: room temperature, 30 min, 6% native polyacrylamide gel; salt and pH not stated; protein in an extract; label: IR680 at 5' end
GATA3 [8] = assay: EMSA; details: EMSA: room temperature, 30 min, 6% native polyacrylamide gel; salt and pH not stated; protein in an extract; label: IR680 at 5' end

Measured: binding result

CTTAAGGCTCGGATGTTTGCTTTTGGCACT (double strand) [T1-Wt unlabeled competitor]
binds: FOXA1 [1] | FOXA2 [2] | FOXA3 [3] | GATA3 [4]

CTTAAGGCTCGGATGTTTGCTTTTGGCACT (double strand) [T1-Wt-IR680 (exJSRV LTR -146/-132)]
binds: FOXA1 [5] | FOXA2 [6] | FOXA3 [7] | GATA3 [8]

Construct, isoform or probe ends are uncertain for at least one entry. At least one result comes from cells or an extract, where the contact may be indirect.
